# Results from one PubChem assay

From PubChem BioAssay record AID912 (NCATS, 2007).

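Uptake of anthrax lethal toxin into cultured cells, read by FRET (460/530 nm ratio) and reported from the 460 nm channel; the cell line is not named here. Each compound was tested as a concentration series from about 0.0005 to 40 µM. The number is the fitted AC50 of the 460 nm signal alone; lower values mean a more potent effect. A falling signal goes with compounds filed as inhibitors or cytotoxic, a rising one with activators or fluorescent compounds (inferred from the filed classes).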

Values are in µM. Common to all entries: measured here: 460 nm channel. Part of the compounds only, not a random draw; the main read-out is not listed here. Potencies fitted to partial, single-point or poorly fitting curves are rough. The first word of each remark tells which way the curve ran; it can be opposite to the aim of the assay.

| # | SMILES | AC50 (µM) | curve |
|---|---|---|---|
| 1 | `O=C(NCc1ccco1)c1nc2ccccc2s1` | 0.03162 | falling, full curve |
| 2 | `Oc1ccc(-c2nnc(SCC3CCCCC3)o2)cc1` | 12.59 | falling, single point |
| 3 | `O=C(Nc1nccs1)NC1CCCCC1` | 5.012 | rising, partial curve |
| 4 | `COc1ccc(Oc2ncc3nc(-c4ccccc4)c(=O)n(Cc4cccs4)c3n2)cc1` | 1.259 | falling, full curve, poor fit |
| 5 | `CC1CCc2sc3ncn4nc(C(=O)NCc5ccco5)nc4c3c2C1` (stereo not drawn) | 0.1 | falling, full curve |
| 6 | `O=C(CSc1nc2nc[nH]c2c(=O)[nH]1)NC1CCCCC1` | 10 | rising, partial curve |
| 7 | `O=c1c(O)c(-c2cc(O)c(O)c(O)c2)oc2cc(O)cc(O)c12` | 12.59 | falling, partial curve |
| 8 | `Cc1ccc(-n2ncc3c2ncn2nc(-c4ccco4)nc32)c(C)c1` | 1 | falling, single point |
| 9 | `CC1(C)Cc2c(C#N)c(NC3CCCCC3)nc(-c3ccco3)c2CO1` | 10 | rising, partial curve |
| 10 | `CCOC(=O)C1CCN(c2c(NC3CCCc4ccccc43)c(=O)c2=O)CC1` (stereo not drawn) | 7.943 | rising, partial curve |
| 11 | `Cn1c(=O)oc2cc(S(=O)(=O)N3CCN(c4cccc(Cl)c4)CC3)ccc21` | 10 | rising, single point |
| 12 | `CC(=O)Oc1cc(OC(C)=O)c2c(=O)cc(-c3ccc(OC(C)=O)c(OC(C)=O)c3)oc2c1` | 15.85 | falling, partial curve, poor fit |
| 13 | `Cc1ccc(S(=O)(=O)N(C)Cc2nc(-c3ccc(Br)cc3)no2)cc1` | 1.995 | falling, partial curve |
| 14 | `CCOC(=O)CN(C(=O)CSc1nnc(-c2ccncc2)n1CCCN(C)C)c1ccccc1` | 19.95 | rising, single point |
| 15 | `CSc1nsc(SC)c1C(=O)OCC(F)(F)F` | 15.85 | falling, partial curve |
| 16 | `CC1CN(c2ncnc3c2oc2ccccc23)CC(C)O1` (stereo not drawn) | 5.012 | rising, single point |
| 17 | `Cc1ccc(O)c(-c2cc3ccccc3[nH]2)c1` | 12.59 | falling, partial curve |
| 18 | `CCN(CC)CCNC(=O)CCn1c(=S)[nH]c2cc3c(cc2c1=O)OCO3` | 0.01259 | falling, full curve, poor fit |
| 19 | `COc1c(C(C)(C)C)cc([N+](=O)[O-])c(C)c1[N+](=O)[O-]` | 31.62 | falling, partial curve |
| 20 | `CN(N=O)C(=O)N[C@H]1C(O)OC(CO)[C@@H](O)[C@H]1O` (stereo partly drawn) | 12.59 | falling, single point |
| 21 | `O=C(O)C1CCCCC1C(=O)NCCCc1ccccc1` (stereo not drawn) | 0.7943 | falling, full curve, poor fit |
| 22 | `COc1ccc(-c2noc(CN(C)S(=O)(=O)c3ccc(C)cc3)n2)cc1` | 12.59 | falling, partial curve |
| 23 | `COc1ccc(-n2c(Cc3cc(=O)[nH]c(=O)[nH]3)nnc2SCC(=O)Nc2ccccc2)cc1` | 10 | rising, partial curve |
| 24 | `O=C(NCCc1c[nH]c2ccccc12)[C@@H]1C[C@H]1[C@@H](NP(=O)(c1ccccc1)c1ccccc1)c1ccccc1` | 0.5012 | falling, partial curve |
| 25 | `Clc1ccc(-c2nnn(Cc3nc4ccccc4s3)n2)cc1` | 10 | falling, partial curve |
| 26 | `CCOc1ccc(N2CC(C(=O)Nc3ccccc3OC)CC2=O)cc1` (stereo not drawn) | 25.12 | rising, single point |
| 27 | `Cc1cc(NC(=O)CCCSc2nc(-c3ccco3)cc(C(F)(F)F)n2)no1` | 6.31 | falling, partial curve |
| 28 | `CCCCn1nnnc1NCc1cc(OC)c(OC)c(OC)c1` | 3.162 | rising, full curve, poor fit |
| 29 | `CC(C)(C)Sc1ccc(N)nc1` | 3.981 | falling, full curve, poor fit |
| 30 | `O=C1CC(c2ccco2)CC2=C1C=Nc1ccccc1N2` (stereo not drawn) | 1.995 | falling, partial curve |
| 31 | `O=C(CSc1nnc(-c2ccccn2)n1Cc1ccco1)c1ccccc1` | 1 | falling, partial curve |
| 32 | `Nc1nnnn1NCc1cccc(OCc2ccccc2)c1` | 0.003981 | rising, full curve, poor fit |
| 33 | `COc1ccc(CNC(=O)C2CCN(c3nccs3)CC2)cc1` | 6.31 | rising, partial curve |
| 34 | `COc1ccc(C(=O)CSc2nnc(-c3cc4ccccc4cc3O)n2Cc2ccco2)cc1` | 31.62 | falling, single point |
| 35 | `COc1ccc(-c2nc3cnc(N4CCNCC4)nc3n(Cc3cccc(OC)c3)c2=O)cc1` | 2.512 | rising, full curve |
| 36 | `COc1ccc(Cl)c(NC(=O)Cn2nnc(-c3ccccc3N)n2)c1` | 10 | falling, partial curve, poor fit |
| 37 | `CCOc1ccc(N(CC(=O)Nc2ccc3c(c2)OCCO3)S(=O)(=O)c2c(C)noc2C)cc1` | 12.59 | falling, partial curve |
| 38 | `Cc1cc(O)c(C(C)C)cc1NC(=O)Nc1cccc2ccccc12` | 3.162 | falling, single point |
| 39 | `COc1ccc(C2C3=C(CC(C)(C)CC3=O)N(CCN3CCOCC3)C3=C2C(=O)CC(C)(C)C3)cc1` | 12.59 | rising, partial curve |
| 40 | `Nc1ncnc2c([C@@H]3O[C@@H](CO)[C@H](O)[C@@H]3O)nsc12` | 0.02512 | falling, full curve |
| 41 | `CCCCCOC(=O)C1[C@H]2C(=O)N(CCCOC)C[C@]23C=C[C@H]1O3` (stereo partly drawn) | 0.3162 | falling, partial curve |
| 42 | `COc1ccccc1-c1noc(-c2ccccc2C(=O)Nc2ccccc2)n1` | 0.1259 | rising, full curve, poor fit |
| 43 | `O=c1cnnc(SCCc2ccccc2)[nH]1` | 12.59 | rising, single point |
| 44 | `CCOC(=O)C1CCN(S(=O)(=O)c2cccc(-c3cn4ccccc4n3)c2)CC1` | 1 | falling, partial curve |
| 45 | `COc1ccc(C(=O)c2ccc(OC)c(N)c2)cc1N` | 31.62 | falling, single point |
| 46 | `CC(C)(C)c1nn(-c2ccccc2)c2[nH]c(=O)c(CNCc3ccco3)cc12` | 15.85 | rising, partial curve, poor fit |
| 47 | `c1ccc(Oc2cccc(OCCCn3cncn3)c2)cc1` | 5.012 | rising, single point |
| 48 | `COc1cccc(CN(Cc2ccco2)C(c2ccc(F)cc2)c2nnnn2C(C)(C)C)c1` (stereo not drawn) | 2.512 | falling, full curve |
| 49 | `C=CCOc1ccc(/C(O)=C2/C(=O)C(=O)N(CCN3CCOCC3)C2c2ccc(C)cc2)cc1` (stereo not drawn) | 0.003981 | rising, full curve, poor fit |
| 50 | `CCN1CCN(c2nc3c(c(=O)[nH]c(=O)n3C)n2CCCSc2ncccn2)CC1` | 0.01 | rising, single point |
| 51 | `COc1ccc2nc3c(cc2c1)Cc1ccccc1-3` | 10 | falling, partial curve |
| 52 | `CC(=O)c1c(O)cc(C)n(Cc2ccccc2)c1=O` | 15.85 | rising, partial curve, poor fit |
| 53 | `O=C1N=C(O)CN1/N=C\c1ccc(-c2ccc([N+](=O)[O-])cc2)o1` | 12.59 | falling, single point |
| 54 | `COC(=O)C1=C(C)NC2=C(C(=O)CCC2)C1c1cccc(C)n1` (stereo not drawn) | 25.12 | rising, single point |
| 55 | `O=C(O)[C@H]1CCCNC1` | 0.001 | rising, full curve, poor fit |
| 56 | `COc1cccc(C2C=C(c3cccs3)Nc3ncnn32)c1OC` (stereo not drawn) | 12.59 | rising, partial curve |
| 57 | `Cc1cnn(-c2cc(Oc3ccccc3)ncn2)c1` | 0.01 | falling, full curve, poor fit |
| 58 | `COc1ccc(C2CC(c3ccccc3)n3nc(NC(=O)c4cccs4)nc3N2)cc1` (stereo not drawn) | 12.59 | rising, single point |
| 59 | `O=C(Nc1ccc(N2CCN(C(=O)c3ccco3)CC2)c(Cl)c1)c1cc2ccccc2o1` | 3.162 | falling, full curve |
| 60 | `O=C(Oc1ccc2c(c1)OCO2)c1cc2c(s1)CCC2` | 12.59 | rising, single point |
| 61 | `CCCCN(CC)CCCNC(=O)c1cc2cc3ccc(OC)cc3nc2o1` | 10 | falling, partial curve |
| 62 | `c1ccc(N2CC[C@@]3(CCCNC3)C2)nc1` | 10 | rising, partial curve |